Experiment in all cases: 72-hour CellTiter-Glo 2.0 growth inhibition screen (single agent, 9x9 combination dose matrix)
Holding throughout (type): cell-based
A general note: Cellular ATP, detected with luciferase, serves as a proxy for viable cell number.

The subject of one data set is Panc 04.03. Conditions: Panc 04.03 (KRAS G12D), enhancer + MEI-522 (Voruciclib). On the procedure: (§1) Growth inhibition was determined using a 72-hour CellTiter-Glo®2.0 proliferation assay. Combination format was a 9×9 dose matrix. Six of the 20 cell lines received the original two combinations whilst the remaining 14 cell lines received two additional combinations resulting in four combinations in total. Results have been supplied as both Chalice Analyzer files (.mcc) and raw luminescence data.
(§2) Cell lines that have been preserved in liquid nitrogen are thawed and expanded in growth media (see Appendix I). Once cells have reached expected doubling times, screening begins. Cells are seeded in 25 μl of growth media in black 384-well tissue culture treated plates at 500 cells per well (as noted in Analyzer). Cells are equilibrated in assay plates via centrifugation and placed at 37° C. 5% CO2 for twenty-four hours before treatment. […] Compounds are transferred to assay plates using and Echo acoustic liquid handling system. […] of each compound was added at the appropriate concentration for all combination dose points. Therefore, final assay volume would be 25.05 μl. Assay plates are incubated with compound for 3 days and are then analyzed using CellTiter-Glo 2.0. All data points are collected via automated processes and are subject to quality control and analyzed.
(§3) If T≥V_0:100*(1−(T−V_0)/(V−V_0)) • where T is the signal measure for a test article, V is the untreated/vehicle-treated control measure, and Vo is the untreated/vehicle control measure at time zero (also colloquially referred as TO plates). This formula is derived from the Growth Inhibition calculation used in the National Cancer Institute's NCI-60 high throughput screen. For the purposes of this disclosure, all data analysis was performed in Growth Inhibition (except where noted).
(§4) Inhibition is also provided as a measure of cell viability. […] Inhibition of 100% represents no doubling of cell numbers during the treatment window. Both cytostatic and cytotoxic treatments can yield an Inhibition percentage of 100%. Inhibition percentage is calculated as the following: […]
(§5) The fractional inhibition for each component agent and combination point in the matrix is calculated relative to the median of all untreated/vehicle-treated control wells. The Synergy Score equation integrates the experimentally-observed activity volume at each point in the matrix in excess of a model surface numerically derived from the activity of the component agents using the Loewe model for additivity. Additional terms in the Synergy Score equation (above) are used to normalize for various dilution factors used for individual agents and to allow for comparison of synergy scores across an entire experiment. The inclusion of positive inhibition gating or an Idata multiplier removes noise near the zero-effect level, and biases results for synergistic interactions at that occur at high activity levels. Combinations with higher maximum Growth Inhibition (GI) effects or those which are synergistic at low concentrations will have higher Synergy Scores.
(§6) The CI is a rough estimate of how much drug was needed in combination relative to the single agent doses required to achieve the chosen effect level. CI values in the range of 0.5-0.7 are typical for in vitro measurements of current clinical combinations. The CI error (σCI) is calculated using standard error propagation through the CI calculation based on the isobologram errors. In the Chalice Analyzer, the Best CI is reported from the many CI values calculated for each Icut crossing combination. Among all the measured CI values, the one with the largest single-to-noise level (1−CI)/σCI is reported as the Best CI. Best CI Level is the effect level from which the CI is calculated.

Another data set has as its system AsPC-1. The conditions noted are these: AsPC-1 (KRAS G12D), enhancer + MEI-522 (Voruciclib). On the procedure:
as §1, §2, §3, §4, §5, §6

In the next data set the test system is SW837. The conditions noted are these: SW837 (KRAS G12C), enhancer + MEI-522 (Voruciclib). On the procedure:
as §1, §2, §3, §4, §5, §6

The next data set relates to NCI-H358. The conditions noted are these: NCl-H358 (KRAS G12C), enhancer + MEI-522 (Voruciclib). On the procedure:
as §1, §2, §3, §4, §5, §6

The next data set relates to TOV-21G. The conditions noted are these: TOV-21G (KRAS G13C), enhancer + MEI-522 (Voruciclib). As to the method: as §1, §2, §3, §4, §5, §6
In another data set the test system is Gp2D. The conditions noted are these: Gp2D (KRAS G12D), enhancer + MEI-522 (Voruciclib). As to the method:
as §1, §2, §3, §4, §5, §6

The next data set deals with LS-513. Conditions: LS-513 (KRAS G12D), enhancer + MEI-522 (Voruciclib). As to the method: as §1, §2, §3, §4, §5, §6
Another data set has as its system SW48 KRAS (G12C/+). The conditions noted are these: enhancer + MEI-522 (Voruciclib). On the procedure: as §1, §2, §3, §4, §5, §6

For `CC[C@@H]1C(=O)N(C)c2cnc(Nc3ccc(C(=O)N[C@H]4CC[C@H](N5CCN(CC6CC6)CC5)CC4)cc3OC)nc2N1C(C)C` [Volasertib], the “Best CI Level” value with Panc 04.03 came out at 170; with AsPC-1, 95; with SW837, 160; in the data set on NCI-H358, 110; with TOV-21G it was 20; in the data set with Gp2D, 175. Moreover, the “Best CI Level” value in the data set on LS-513 is given as 145; with SW48 KRAS (G12C/+) it was 125.
Consider `C=CC(=O)N1CCN(c2nc(=O)n(-c3c(C)ccnc3C(C)C)c3nc(-c4c(O)cccc4F)c(F)cc23)[C@@H](C)C1` [AMG510], for which the “Best CI Level” value in the data set with Panc 04.03 amounted to 45; with AsPC-1, 20; with SW837, 95; in the data set on NCI-H358 it was 25; with TOV-21G, 25; in the data set on Gp2D it was 175. The “Best CI Level” value in the data set on LS-513 stood at 20; with SW48 KRAS (G12C/+) it was 130.
For `CN1CCN(c2ccc(OC(F)(F)F)c(Nc3ncc4c(n3)-c3c(c(C(N)=O)nn3CCO)CC4)c2)CC1` [Onvansertib], the “Best CI Level” value in the data set on Panc 04.03 is 20; in the data set with AsPC-1 it was 20; in the data set with SW837, 30; with NCI-H358 it was 110; with TOV-21G, 40; in the data set on Gp2D, 175. For the same molecule, the “Best CI Level” value was found to be 150 in the data set on LS-513 and 120 with SW48 KRAS (G12C/+).

For the origin of these results see patent US20240016781A1, “TREATMENT OF KRAS MUTANT CANCERS” (MEI Pharma, Inc., priority 2020, published 2024).
